Test results as given in PubChem BioAssay AID248 (DTP/NCI, 2004).
The list shows only some results of the screen, not a fair sample: it is rich in T/C values a quarter to a half above the control, in often repeated tests (any T/C) and in doses without a T/C. Other doses and runs of a compound stand elsewhere. T/C: endpoint of the treated group in % of that of the vehicle group. Some entries give survivors of the animals treated and no T/C: the source files T/C as zero there, which appears to mark a toxic dose or a test without result, not a measured value. Some survivor counts are full or nearly so, which does not show that the dose was tolerated: survival well below the control is almost never listed, so the zero probably covers shortened survival too. Survivors were counted at the toxicity check, usually on the fifth day, unless a day is given; later deaths do not show. Schedule codes are those of the source, taken here to give the interval after Q, in days (D) or hours (H), and the number of doses after X. Some doses were run more than once; the results are listed from low to high. Some schedule codes hold Z or #, which are not explained here. For survival time, this PubChem deposit counts one and a half times the control or more as active, and values a quarter to a half above the control carry no call in these data; other NCI protocols may use other cut-offs.

System: L1210 leukemia ip in BDF1 mice, survival T/C
Experiment: NCI In Vivo Anticancer Drug Screen. Data for tumor model L1210 Leukemia (intraperitoneal) in B6D2F1 (BDF1) mice
Conditions: T/C endpoint: mean survival time, higher T/C = longer survival

SMILES: O=NN(CCCl)C(=O)NC1CC2CCC1C2 (centres undefined)
- survivor count (dose: 2.08 mg/kg/injection, schedule: Q#B X Z (ip), vehicle: other): 4 of 6
- T/C (dose: 3.1 mg/kg/injection, schedule: Q01DX015 (ip), vehicle: other): 142 % of control
- T/C (dose: 4.0 mg/kg/injection, schedule: Q01DX005 (ip), vehicle: carboxymethylcellulose (CMC)): 137 % of control
- T/C (dose: 4.0 mg/kg/injection, schedule: Q01DX009 (ip), vehicle: carboxymethylcellulose (CMC)): 125 % of control
- survivor count (dose: 4.16 mg/kg/injection, schedule: Q#B X Z (ip), vehicle: other): 4 of 6
- T/C (dose: 4.9 mg/kg/injection, schedule: Q01DX015 (ip), vehicle: other): 136 % of control
- T/C (dose: 6.2 mg/kg/injection, schedule: Q02DX008 (ip), vehicle: other): 127 and 140 % of control
- T/C (dose: 6.25 mg/kg/injection, schedule: Q01DX009 (oral), vehicle: carboxymethylcellulose (CMC)): 127 % of control
- survivor count (dose: 8.0 mg/kg/injection, schedule: Q01DX005 (ip), vehicle: carboxymethylcellulose (CMC)): 0 of 10
- T/C (dose: 10.0 mg/kg/injection, schedule: Q## X032 (ip), vehicle: other): 130 % of control
- T/C (dose: 12.5 mg/kg/injection, schedule: Q01DX001 (im), vehicle: other): 137 % of control
- T/C (dose: 12.5 mg/kg/injection, schedule: Q01DX001 (ip), vehicle: other): 137 % of control
- T/C (dose: 12.5 mg/kg/injection, schedule: Q01DX001 (iv), vehicle: other): 143 % of control
- T/C (dose: 12.5 mg/kg/injection, schedule: Q01DX001 (oral), vehicle: other): 135 % of control
- T/C (dose: 14.5 mg/kg/injection, schedule: Q01DX001 (ip), vehicle: other): 128 and 131 % of control
- T/C (dose: 18.0 mg/kg/injection, schedule: Q01DX001 (ip), vehicle: carboxymethylcellulose (CMC)): 141 and 142 % of control
- T/C (dose: 23.0 mg/kg/injection, schedule: Q## X032 (ip), vehicle: other): 132 % of control
- T/C (dose: 25.0 mg/kg/injection, schedule: Q01DX001 (iv), vehicle: other): 143 % of control
- T/C (dose: 26.0 mg/kg/injection, schedule: Q01DX001 (ip), vehicle: other, evaluated on day 45): 391 and 534 % of control
- T/C (dose: 26.0 mg/kg/injection, schedule: Q01DX001 (ip), vehicle: other, evaluated on day 46): 545 and 645 % of control
- T/C (dose: 32.0 mg/kg/injection, schedule: Q01DX009 (sc), vehicle: carboxymethylcellulose (CMC)): 130 % of control
- survivor count (dose: 33.33 mg/kg/injection, schedule: Q#B X Z (ip), vehicle: other): 3 of 6
- T/C (dose: 39.0 mg/kg/injection, schedule: Q01DX001 (ip), vehicle: other, evaluated on day 45): 526 and 581 % of control
- T/C (dose: 39.0 mg/kg/injection, schedule: Q01DX001 (ip), vehicle: other, evaluated on day 46): 576 and 681 % of control
- T/C (dose: 39.0 mg/kg/injection, schedule: Q01DX001 (ip), vehicle: other, run until all animals had died): 348 % of control
- T/C (dose: 50.0 mg/kg/injection, schedule: Q01DX017 (ip), vehicle: carboxymethylcellulose (CMC)): 137 % of control
- T/C (dose: 50.0 mg/kg/injection, schedule: Q03DX Z (ip), vehicle: other): 134 % of control
- T/C (dose: 58.0 mg/kg/injection, schedule: Q01DX001 (ip), vehicle: other, evaluated on day 45): 494 and 527 % of control
- T/C (dose: 58.0 mg/kg/injection, schedule: Q01DX001 (ip), vehicle: other, evaluated on day 46): 679 and 783 % of control
- T/C (dose: 58.0 mg/kg/injection, schedule: Q01DX001 (ip), vehicle: other, run until all animals had died): 95, 348, 355 % of control
- T/C (dose: 64.0 mg/kg/injection, schedule: Q01DX009 (sc), vehicle: carboxymethylcellulose (CMC)): 130 % of control
- survivor count (dose: 66.66 mg/kg/injection, schedule: Q#B X Z (ip), vehicle: other): 0 of 6
- T/C (dose: 87.0 mg/kg/injection, schedule: Q01DX001 (ip), vehicle: other, evaluated on day 45): 321 and 417 % of control
- T/C (dose: 87.0 mg/kg/injection, schedule: Q01DX001 (ip), vehicle: other, evaluated on day 46): 357 and 676 % of control
- T/C (dose: 87.0 mg/kg/injection, schedule: Q01DX001 (ip), vehicle: other, run until all animals had died): 283 % of control
- T/C (dose: 100.0 mg/kg/injection, schedule: Q01DX001 (ip), vehicle: other): 128 % of control
- T/C (dose: 100.0 mg/kg/injection, schedule: Q01DX005 (oral), vehicle: carboxymethylcellulose (CMC)): 144 % of control
- survivor count (dose: 100.0 mg/kg/injection, schedule: Q03DX Z (ip), vehicle: other): 5 of 6
- T/C (dose: 100.0 mg/kg/injection, schedule: Q04DX005 (ip), vehicle: carboxymethylcellulose (CMC)): 125 % of control
- survivor count (dose: 100.0 mg/kg/injection, schedule: Q07DX Z (ip), vehicle: other): 6 of 6
- survivor count (dose: 117.0 mg/kg/injection, schedule: Q01DX001 (oral), vehicle: other): 10 of 10
- survivor count (dose: 128.0 mg/kg/injection, schedule: Q01DX009 (oral), vehicle: carboxymethylcellulose (CMC)): 7 of 10
- survivor count (dose: 128.0 mg/kg/injection, schedule: Q04DX003 (ip), vehicle: carboxymethylcellulose (CMC)): 10 of 10
- T/C (dose: 130.0 mg/kg/injection, schedule: Q01DX001 (ip), vehicle: other, evaluated on day 45): 108 and 184 % of control
- T/C (dose: 130.0 mg/kg/injection, schedule: Q01DX001 (ip), vehicle: other, evaluated on day 46): 113 and 125 % of control
- survivor count (dose: 139.0 mg/kg/injection, schedule: Q01DX001 (ip), vehicle: carboxymethylcellulose (CMC)): 9 of 10
- survivor count (dose: 200.0 mg/kg/injection, schedule: Q01DX001 (ip), vehicle: other): 4 of 6
- survivor count (dose: 200.0 mg/kg/injection, schedule: Q01DX001 (ip), vehicle: saline): 4 of 10
- survivor count (dose: 200.0 mg/kg/injection, schedule: Q01DX001 (oral), vehicle: other): 5 of 6
- T/C (dose: 200.0 mg/kg/injection, schedule: Q01DX001 (sc), vehicle: other): 128 % of control
- survivor count (dose: 200.0 mg/kg/injection, schedule: Q03DX Z (ip), vehicle: other): 5 of 6
- survivor count (dose: 200.0 mg/kg/injection, schedule: Q07DX Z (ip), vehicle: other): 6 of 6
- survivor count (dose: 256.0 mg/kg/injection, schedule: Q01DX001 (ip), vehicle: carboxymethylcellulose (CMC)): 9 of 10
- survivor count (dose: 256.0 mg/kg/injection, schedule: Q01DX009 (oral), vehicle: carboxymethylcellulose (CMC)): 6 of 10
- survivor count (dose: 256.0 mg/kg/injection, schedule: Q04DX003 (ip), vehicle: carboxymethylcellulose (CMC)): 8 of 10
- survivor count (dose: 375.0 mg/kg/injection, schedule: Q01DX001 (ip), vehicle: carboxymethylcellulose (CMC)): 2 of 6
- survivor count (dose: 400.0 mg/kg/injection, schedule: Q01DX001 (im), vehicle: other): 3 of 6
- survivor count (dose: 400.0 mg/kg/injection, schedule: Q01DX001 (ip), vehicle: other): 0 of 6
- survivor count (dose: 400.0 mg/kg/injection, schedule: Q01DX001 (iv), vehicle: other): 1 of 6
- survivor count (dose: 400.0 mg/kg/injection, schedule: Q01DX001 (oral), vehicle: other): 6 of 6
- survivor count (dose: 400.0 mg/kg/injection, schedule: Q01DX001 (sc), vehicle: other): 5 of 6
- survivor count (dose: 400.0 mg/kg/injection, schedule: Q03DX Z (ip), vehicle: other): 0 of 6
- survivor count (dose: 400.0 mg/kg/injection, schedule: Q07DX Z (ip), vehicle: other): 0 of 6
- survivor count (dose: 512.0 mg/kg/injection, schedule: Q01DX001 (oral), vehicle: carboxymethylcellulose (CMC)): 9 of 10
- survivor count (dose: 800.0 mg/kg/injection, schedule: Q01DX001 (im), vehicle: other): 1 of 6
- survivor count (dose: 800.0 mg/kg/injection, schedule: Q01DX001 (ip), vehicle: other): 0 of 6 and 6 of 6
- survivor count (dose: 800.0 mg/kg/injection, schedule: Q01DX001 (oral), vehicle: other): 2 of 6
- survivor count (dose: 800.0 mg/kg/injection, schedule: Q01DX001 (sc), vehicle: other): 3 of 6
- survivor count (dose: 800.0 mg/kg/injection, schedule: Q03DX Z (ip), vehicle: other): 0 of 6
- survivor count (dose: 800.0 mg/kg/injection, schedule: Q07DX Z (ip), vehicle: other): 0 of 6
- T/C (dose: 250.0 micrograms/kg/injection, schedule: Q03HX008 (ip), vehicle: carboxymethylcellulose (CMC)): 139 % of control
- T/C (dose: 2000.0 micrograms/kg/injection, schedule: Q03HX024 (ip), vehicle: carboxymethylcellulose (CMC)): 127 % of control
- survivor count (dose: 4000.0 micrograms/kg/injection, schedule: Q03HX008 (ip), vehicle: carboxymethylcellulose (CMC)): 6 of 10
- survivor count (dose: 4000.0 micrograms/kg/injection, schedule: Q03HX024 (ip), vehicle: carboxymethylcellulose (CMC)): 10 of 10
